The source of these data is article PMC9834408, “The SPOC domain is a phosphoserine binding module that bridges transcription machinery with co- and post-transcriptional regulators” (Nature Communications, 2023).

By UniProt entry, the sequences of proteins in these tests, tags left out.
UniProt Q9H5H4: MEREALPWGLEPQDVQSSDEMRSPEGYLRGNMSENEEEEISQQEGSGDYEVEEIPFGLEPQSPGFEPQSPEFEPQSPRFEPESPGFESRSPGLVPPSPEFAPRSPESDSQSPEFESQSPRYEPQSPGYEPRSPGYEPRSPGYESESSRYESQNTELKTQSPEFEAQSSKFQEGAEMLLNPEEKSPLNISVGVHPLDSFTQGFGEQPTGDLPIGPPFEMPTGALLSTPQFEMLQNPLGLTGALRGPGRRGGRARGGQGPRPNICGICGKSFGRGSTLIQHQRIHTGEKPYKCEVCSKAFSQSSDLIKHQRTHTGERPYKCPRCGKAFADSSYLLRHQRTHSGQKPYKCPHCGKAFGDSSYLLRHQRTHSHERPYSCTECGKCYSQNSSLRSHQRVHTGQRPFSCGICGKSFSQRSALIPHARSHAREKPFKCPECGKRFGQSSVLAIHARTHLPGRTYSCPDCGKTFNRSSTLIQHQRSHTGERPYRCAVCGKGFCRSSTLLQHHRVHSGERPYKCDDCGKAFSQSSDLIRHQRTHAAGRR

Holding throughout (experiment): co-IP; anti-FLAG M2 beads; 3×FLAG-tagged SPOC domains, full-length or ΔSPOC proteins expressed in HEK293T; lysis in 50 mM Tris-Cl pH 8, 150 mM NaCl, 0.1% Triton with benzonase; elution with 3×FLAG peptide; western blot; performed once
The target of experiment [1] is 3×FLAG-NLS-RBM15-SPOC (human) (UniProt Q96T37).
Another experiment concerns the target 3×FLAG-RBM15 (human) (UniProt Q96T37).
The target in experiment [2] is 3×FLAG-DIDO3 ∆SPOC (human) (UniProt Q9BTC0).
Experiment [3] deals with 3×FLAG-PHF3 ∆SPOC (human) (UniProt Q92576).

These are yes or no findings as the source states them, for the method shown. In cells and extracts the contact can be indirect. For some of these results: A result given as binding can be weak or reduced; the word gives no strength. For some of these results: Tags and fused reporters may be left off the sequences shown.

In the case of “CK2 (casein kinase 2) (human (endogenous in HEK293T)) (enzyme)”, the values for the binding result (in experiment [1]; with 3×FLAG-RBM15 (human)) were “binds” and “no binding”, respectively.

For ZNF768 (from UniProt Q9H5H4 1-540), the binding result in experiment [2] and in experiment [3] was “binds” in each case.
